Assay [1] concerns the target tubulin (mouse). In words: confocal co-localization in CD99-KO T cells expressing the mutant, on anti-CD3-coated coverslips.
Assay [2] has as its target tubulin (mouse). The experiment in a line: co-immunoprecipitation with anti-CD99 antibody (EJ2), anti-alpha-tubulin blot; lysate of activated WT mouse T cells.

No constants are given. Whether binding was seen depends on the method and setting. For some assays here: Binding seen in cells or lysates may run through a third protein. For some assays here: A result given as binding can be weak or reduced; the word gives no strength. For some assays here: Sequences can lack the tags named with a protein.

The source of these data is patent publication US20230118625A1.

B1: CD99 TM mutant (mouse CD99 with transmembrane domain replaced by that of CD4), fluorescent protein fusion (receptor, not shown: large carriers)
chain: QKLISEEDLNSDDFNLGDALEDPNMKPTPKAPTPKKPSGGFDLEDALPGGGGGGAGEKPGNRPQPDPKPPRPHGDSGGISDSDLADAAGQGGGGAGRRGSGDEGGHGGAGGAEPEGTPQGALIVLGGVAGLLLFIGLGIFFCAYQRRRLCFREGGSAPV
As for B1, the binding entry in assay [1] is listed as “no binding”.

B2: CD99 (endogenous, wild-type mouse CD8 T cells) (receptor, UniProt Q8VCN6 29-175, looked up)
chain: DDFNLGDALEDPNMKPTPKAPTPKKPSGGFDLEDALPGGGGGGAGEKPGNRPQPDPKPPRPHGDSGGISDSDLADAAGQGGGGAGRRGSGDEGGHGGAGGAEPEGTPQGLVPGVVAAVVAAVAGAVSSFVAYQRRRLCFREGGSAPV
Turning to B2, the binding result in assay [2] was “binds”.
